# Assay results from publication PMC11920242.
# No constants are given. Whether binding was seen depends on the method and setting. Binding seen in cells or lysates may run through a third protein. Some results given as binding are weak or reduced against the parent protein; the word gives no strength. Sequences can lack the tags named with a protein.
# B1: HA-tagged JAK2, O60674 1-1132 (enzyme)
# chain: MGMACLTMTEMEGTSTSSIYQNGDISGNANSMKQIDPVLQVYLYHSLGKSEADYLTFPSGEYVAEEICIAASKACGITPVYHNMFALMSETERIWYPPNHVFHIDESTRHNVLYRIRFYFPRWYCSGSNRAYRHGISRGAEAPLLDDFVMSYLFAQWRHDFVHGWIKVPVTHETQEECLGMAVLDMMRIAKENDQTPLAIYNSISYKTFLPKCIRAKIQDYHILTRKRIRYRFRRFIQQFSQCKATARNLKLKYLINLETLQSAFYTEKFEVKEPGSGPSGEEIFATIIITGNGGIQWSRGKHKESETLTEQDLQLYCDFPNIIDVSIKQANQEGSNESRVVTIHKQDGKNLEIELSSLREALSFVSLIDGYYRLTADAHHYLCKEVAPPAVLENIQSNCHGPISMDFAISKLKKAGNQTGLYVLRCSPKDFNKYFLTFAVERENVIEYKHCLITKNENEEYNLSGTKKNFSSLKDLLNCYQMETVRSDNIIFQFTKCCPPKPKDKSNLLVFRTNGVSDVPTSPTLQRPTHMNQMVFHKIRNEDLIFNESLGQGTFTKIFKGVRREVGDYGQLHETEVLLKVLDKAHRNYSESFFEAASMMSKLSHKHLVLNYGVCVCGDENILVQEFVKFGSLDTYLKKNKNCINILWKLEVAKQLAWAMHFLEENTLIHGNVCAKNILLIREEDRKTGNPPFIKLSDPGISITVLPKDILQERIPWVPPECIENPKNLNLATDKWSFGTTLWEICSGGDKPLSALDSQRKLQFYEDRHQLPAPKWAELANLINNCMDYEPDFRPSFRAIIRDLNSLFTPDYELLTENDMLPNMRIGALGFSGAFEDRDPTQFEERHLKFLQQLGKGNFGSVEMCRYDPLQDNTGEVVAVKKLQHSTEEHLRDFEREIEILKSLQHDNIVKYKGVCYSAGRRNLKLIMEYLPYGSLRDYLQKHKERIDHIKLLQYTSQICKGMEYLGTKRYIHRDLATRNILVENENRVKIGDFGLTKVLPQDKEYYKVKEPGESPIFWYAPESLTESKFSVASDVWSFGVVLYELFTYIEKSKSPPAEFMRMIGNDKQGQMIVFHLIELLKNNGRLPRPDGCPDEIYMIMTECWNNNVNQRPSFRDLALRVDQIRDNMAG
# Molecular target: T1, Flag-tagged SH2B3 WT (human), Q9UQQ2
# T1 chain: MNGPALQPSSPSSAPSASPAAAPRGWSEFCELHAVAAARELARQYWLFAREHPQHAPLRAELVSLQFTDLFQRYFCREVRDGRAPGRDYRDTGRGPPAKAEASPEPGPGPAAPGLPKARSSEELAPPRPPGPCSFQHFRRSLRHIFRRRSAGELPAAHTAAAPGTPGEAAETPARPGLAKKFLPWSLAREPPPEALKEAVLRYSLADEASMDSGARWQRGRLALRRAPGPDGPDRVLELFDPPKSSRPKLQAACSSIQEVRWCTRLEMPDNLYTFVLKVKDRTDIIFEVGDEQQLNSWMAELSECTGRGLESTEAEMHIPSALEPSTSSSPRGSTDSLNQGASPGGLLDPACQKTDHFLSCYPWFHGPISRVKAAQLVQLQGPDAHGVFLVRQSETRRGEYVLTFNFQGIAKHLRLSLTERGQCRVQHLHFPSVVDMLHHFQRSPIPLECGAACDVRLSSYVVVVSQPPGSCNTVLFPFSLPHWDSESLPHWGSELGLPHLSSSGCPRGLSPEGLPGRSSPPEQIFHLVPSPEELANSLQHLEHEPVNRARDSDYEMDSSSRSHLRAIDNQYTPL
# Experiment: co-IP; HEK293T co-transfected with HA-JAK2 and Flag-SH2B3 WT or variants; 100 ng/mL IFNγ for 48 h; RIPA lysis; anti-Flag M2 affinity gel at 4 °C overnight; immunoblot
# Conditions: remark: other sources report otherwise
binder,measurement,value
B1,binding,binds
